According to the supplement of paper PMC10849652:
The list shows a part of the results.

Sequences of proteins named here, by UniProt entry; tags and fusion partners are left off. A change or cut given only in a name is not applied to a line headed by its entry.
UniProt O75896: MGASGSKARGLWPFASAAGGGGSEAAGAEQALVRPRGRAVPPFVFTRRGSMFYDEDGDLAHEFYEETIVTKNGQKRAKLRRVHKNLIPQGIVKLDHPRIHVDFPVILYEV
UniProt P68363, whole entry, looked up: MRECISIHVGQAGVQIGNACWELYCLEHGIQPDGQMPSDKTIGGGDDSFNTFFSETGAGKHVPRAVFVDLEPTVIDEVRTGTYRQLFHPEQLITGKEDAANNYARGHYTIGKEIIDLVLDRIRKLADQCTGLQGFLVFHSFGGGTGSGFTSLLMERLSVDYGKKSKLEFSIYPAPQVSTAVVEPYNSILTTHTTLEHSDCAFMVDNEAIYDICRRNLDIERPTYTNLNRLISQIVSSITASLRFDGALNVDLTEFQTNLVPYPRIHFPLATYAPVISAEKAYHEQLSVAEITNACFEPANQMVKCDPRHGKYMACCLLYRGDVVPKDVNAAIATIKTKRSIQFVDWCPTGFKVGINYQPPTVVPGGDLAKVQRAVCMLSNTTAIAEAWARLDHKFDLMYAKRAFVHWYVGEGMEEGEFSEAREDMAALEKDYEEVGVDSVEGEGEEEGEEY
UniProt Q06418: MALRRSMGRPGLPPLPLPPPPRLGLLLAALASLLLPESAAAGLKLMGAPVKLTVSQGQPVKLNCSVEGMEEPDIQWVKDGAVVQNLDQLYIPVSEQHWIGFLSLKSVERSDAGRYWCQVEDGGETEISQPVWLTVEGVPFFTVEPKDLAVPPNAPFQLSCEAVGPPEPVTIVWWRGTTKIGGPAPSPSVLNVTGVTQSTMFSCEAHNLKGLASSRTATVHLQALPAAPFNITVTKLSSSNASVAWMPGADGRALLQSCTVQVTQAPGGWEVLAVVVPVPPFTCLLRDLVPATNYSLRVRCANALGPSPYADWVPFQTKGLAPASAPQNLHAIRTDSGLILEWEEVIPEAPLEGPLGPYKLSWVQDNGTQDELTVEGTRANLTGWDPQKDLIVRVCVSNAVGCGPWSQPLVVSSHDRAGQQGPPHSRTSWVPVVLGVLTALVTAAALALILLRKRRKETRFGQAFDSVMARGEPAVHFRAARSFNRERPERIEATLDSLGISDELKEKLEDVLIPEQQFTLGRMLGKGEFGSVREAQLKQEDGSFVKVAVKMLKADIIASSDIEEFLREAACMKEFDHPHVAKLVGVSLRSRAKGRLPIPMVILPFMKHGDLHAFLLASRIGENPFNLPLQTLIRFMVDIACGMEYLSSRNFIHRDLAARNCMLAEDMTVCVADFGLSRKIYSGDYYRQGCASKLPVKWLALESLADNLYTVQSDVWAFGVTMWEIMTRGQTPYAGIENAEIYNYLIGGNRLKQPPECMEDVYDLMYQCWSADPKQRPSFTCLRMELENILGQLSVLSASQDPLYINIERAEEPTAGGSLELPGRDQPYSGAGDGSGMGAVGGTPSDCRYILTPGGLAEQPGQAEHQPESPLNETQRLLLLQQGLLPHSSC
UniProt Q16222: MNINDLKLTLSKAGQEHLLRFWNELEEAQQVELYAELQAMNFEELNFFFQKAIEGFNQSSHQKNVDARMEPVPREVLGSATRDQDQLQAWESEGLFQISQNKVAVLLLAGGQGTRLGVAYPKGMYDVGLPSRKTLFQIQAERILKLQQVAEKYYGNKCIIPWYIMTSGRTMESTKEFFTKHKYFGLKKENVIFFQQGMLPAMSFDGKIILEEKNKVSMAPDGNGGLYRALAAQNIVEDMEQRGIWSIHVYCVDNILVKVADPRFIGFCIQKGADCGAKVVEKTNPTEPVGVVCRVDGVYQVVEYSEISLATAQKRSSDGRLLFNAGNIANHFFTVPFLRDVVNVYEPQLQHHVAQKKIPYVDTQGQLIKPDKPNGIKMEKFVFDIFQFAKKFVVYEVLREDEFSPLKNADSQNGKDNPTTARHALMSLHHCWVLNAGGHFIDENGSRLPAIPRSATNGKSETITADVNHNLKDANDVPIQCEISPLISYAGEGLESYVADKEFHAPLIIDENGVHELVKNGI
UniProt Q8NBM4: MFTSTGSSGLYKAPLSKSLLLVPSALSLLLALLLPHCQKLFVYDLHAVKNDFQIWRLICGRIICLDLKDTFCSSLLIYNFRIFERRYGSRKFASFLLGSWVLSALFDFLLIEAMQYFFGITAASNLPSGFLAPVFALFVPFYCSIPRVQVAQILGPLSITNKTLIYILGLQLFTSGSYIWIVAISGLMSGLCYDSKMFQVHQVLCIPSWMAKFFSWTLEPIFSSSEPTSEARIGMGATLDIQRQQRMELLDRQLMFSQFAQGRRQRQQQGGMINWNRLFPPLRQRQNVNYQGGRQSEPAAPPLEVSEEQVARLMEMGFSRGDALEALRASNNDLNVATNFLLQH
UniProt O43396: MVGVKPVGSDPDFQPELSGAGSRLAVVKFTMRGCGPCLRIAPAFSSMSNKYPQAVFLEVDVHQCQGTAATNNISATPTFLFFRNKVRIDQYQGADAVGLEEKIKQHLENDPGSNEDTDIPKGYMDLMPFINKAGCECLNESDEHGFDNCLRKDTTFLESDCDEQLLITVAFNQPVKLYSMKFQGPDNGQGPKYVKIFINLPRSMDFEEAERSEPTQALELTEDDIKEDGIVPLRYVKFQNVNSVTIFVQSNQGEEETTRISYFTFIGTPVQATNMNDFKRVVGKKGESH
UniProt Q12792, whole entry, looked up: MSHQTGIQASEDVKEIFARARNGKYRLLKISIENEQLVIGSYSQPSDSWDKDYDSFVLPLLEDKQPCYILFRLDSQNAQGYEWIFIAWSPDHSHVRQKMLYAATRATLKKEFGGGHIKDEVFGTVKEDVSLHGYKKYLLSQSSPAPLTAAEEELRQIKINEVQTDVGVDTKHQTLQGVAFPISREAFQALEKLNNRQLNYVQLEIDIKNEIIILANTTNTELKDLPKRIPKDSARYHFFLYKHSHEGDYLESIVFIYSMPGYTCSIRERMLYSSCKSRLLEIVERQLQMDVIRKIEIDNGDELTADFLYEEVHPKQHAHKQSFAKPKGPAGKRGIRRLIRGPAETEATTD
UniProt P63279, whole entry, looked up: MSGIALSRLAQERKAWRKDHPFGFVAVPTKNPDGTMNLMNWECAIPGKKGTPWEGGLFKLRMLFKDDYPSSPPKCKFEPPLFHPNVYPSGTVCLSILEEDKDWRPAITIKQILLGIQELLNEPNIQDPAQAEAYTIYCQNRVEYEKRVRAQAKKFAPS
UniProt Q01081: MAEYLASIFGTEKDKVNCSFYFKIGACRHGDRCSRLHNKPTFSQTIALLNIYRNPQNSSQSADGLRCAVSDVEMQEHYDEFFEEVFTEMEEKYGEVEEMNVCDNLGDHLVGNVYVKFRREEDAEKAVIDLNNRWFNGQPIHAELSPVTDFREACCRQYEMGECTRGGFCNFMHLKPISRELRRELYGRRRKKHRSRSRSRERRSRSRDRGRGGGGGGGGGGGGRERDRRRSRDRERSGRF
UniProt Q6NXR4: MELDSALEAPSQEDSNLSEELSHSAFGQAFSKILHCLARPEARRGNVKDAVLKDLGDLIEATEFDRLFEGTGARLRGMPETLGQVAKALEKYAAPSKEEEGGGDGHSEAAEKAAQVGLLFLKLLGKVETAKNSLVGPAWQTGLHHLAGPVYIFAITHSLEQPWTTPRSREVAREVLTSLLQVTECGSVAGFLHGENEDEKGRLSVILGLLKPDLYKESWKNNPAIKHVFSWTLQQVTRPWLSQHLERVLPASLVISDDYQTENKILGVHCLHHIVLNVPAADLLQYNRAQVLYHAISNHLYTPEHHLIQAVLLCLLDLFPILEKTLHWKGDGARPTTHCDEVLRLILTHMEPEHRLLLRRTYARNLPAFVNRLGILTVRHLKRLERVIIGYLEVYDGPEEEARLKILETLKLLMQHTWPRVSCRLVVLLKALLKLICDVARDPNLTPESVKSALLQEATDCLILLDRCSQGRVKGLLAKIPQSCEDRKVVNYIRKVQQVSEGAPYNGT

Experiments:
Test in all cases: log2 fold change, soluble protein after heating vs DMSO (PISA); higher = thermal stabilisation; K562 cells, 10 uM, 30 min; active = over 0.2 and 3.5 SD of the protein, either way, in both replicates (recomputed)
[1] = compound: C1=CC=C(C=C1)[C@H](COC2=CC3=C(C=C2)NC(=O)N3)NC(=O)C4=CC=CN(C4=O)CC5=CC(=C(C=C5)F)F
Outline: (§1)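 Quantification of soluble protein used TMTpro 16plex LC-MS/MS, with channel sums equalised. Samples were the supernatant after 21,000xg for 90 min of pooled aliquots from K562 cells (2×10^6 cells/mL) treated with 10 μM compound for 30 min, heated for 3 min over 48°C-58°C, and extracted in PBS with 0.5% NP-40 at 4°C. Values, from duplicates, describe thermal stability against control samples on a log2 fold-change scale.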

[2] = compound: CC1=C(SC2=C1C(=N[C@H](C3=NN=C(N32)C)CC(=O)N)C4=CC=C(C=C4)Cl)C
Outline: as §1

[3] = compound: CC1=C2C(=CC=C1)N=C(N(C2=O)C3=CC=CC=C3C)CN4C=NC5=C(N=CN=C54)N
Outline: as §1

[4] = compound: Cc1sc2c(c1C)C(c1ccc(Cl)cc1)=N[C@@H](CC(=O)OC(C)(C)C)c1nnc(C)n1-2
Outline: as §1

[5] = compound: c1ccc([C@@H]2C[C@H]2NC2CCNCC2)cc1
Outline: as §1

Measured: log2 fold change

TUSC2 (UniProt O75896)
inactive: [1] -0.067

TUBA1B (UniProt P68363)
inactive: [1] -0.034 | [2] 0.031 | [3] -0.003 | [4] 0.001 | [5] 0.026

TYRO3 (UniProt Q06418)
inactive: [1] 0.168

UAP1 (UniProt Q16222)
inactive: [1] -0.007 | [2] 0.041 | [3] 0.047 | [4] -0.008 | [5] -0.033

UBAC2 (UniProt Q8NBM4)
inactive: [1] -0.09 | [2] 0.01 | [3] 0.043 | [4] -0.126 | [5] -0.03

TXNL1 (UniProt O43396)
inactive: [1] 0.005 | [2] 0.051 | [3] 0.056 | [4] -0.01 | [5] 0.015

TWF1 (UniProt Q12792)
inactive: [1] -0.013 | [2] 0.041 | [3] 0.057 | [4] -0.017 | [5] -0.106

UBE2I (UniProt P63279)
inactive: [1] -0.006 | [2] 0.088 | [3] 0.08 | [4] -0.028 | [5] -0.061

U2AF1 isoform 2 (UniProt Q01081)
inactive: [1] 0.021 | [2] 0.03 | [3] 0.11 | [4] -0.02 | [5] 0.035

TTI2 (UniProt Q6NXR4)
inactive: [1] 0.07 | [2] 0.027 | [3] 0.031 | [4] 0.028 | [5] 0.041
